Data published in publication doi:10.1101/2021.10.14.464392.
Read-outs that look alike come from different tables or passages of the source. These are yes or no findings as the source states them, for the method shown. Binding seen in cells or lysates may run through a third protein. Some binding calls cover weakened binding; strength is not graded here. For some assays here: Where a sequence is shown, tags or fusion partners need not be part of it.

Sequences of proteins named here, by UniProt entry; tags and fusion partners are left off. A change or cut given only in a name is not applied to a line headed by its entry. Residues count along the entry.
UniProt Q4VCS5, 410-1084: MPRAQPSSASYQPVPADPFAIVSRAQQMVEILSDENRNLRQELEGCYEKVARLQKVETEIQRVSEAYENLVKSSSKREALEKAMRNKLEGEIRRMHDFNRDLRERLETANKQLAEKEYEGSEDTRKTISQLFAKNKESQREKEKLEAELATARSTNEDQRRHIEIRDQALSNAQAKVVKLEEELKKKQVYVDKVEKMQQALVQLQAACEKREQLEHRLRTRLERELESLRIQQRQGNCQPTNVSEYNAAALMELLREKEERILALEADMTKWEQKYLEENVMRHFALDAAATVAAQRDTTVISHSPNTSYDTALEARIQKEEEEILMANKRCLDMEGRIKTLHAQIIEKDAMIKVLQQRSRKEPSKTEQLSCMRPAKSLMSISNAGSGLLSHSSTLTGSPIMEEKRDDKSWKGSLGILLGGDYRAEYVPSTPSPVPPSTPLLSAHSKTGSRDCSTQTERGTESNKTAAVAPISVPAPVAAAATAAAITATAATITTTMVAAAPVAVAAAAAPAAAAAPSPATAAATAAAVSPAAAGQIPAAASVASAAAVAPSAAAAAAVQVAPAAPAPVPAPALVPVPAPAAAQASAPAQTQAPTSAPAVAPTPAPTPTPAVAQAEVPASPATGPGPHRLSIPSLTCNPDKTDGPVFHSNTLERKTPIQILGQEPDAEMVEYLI
UniProt Q4VCS5, 410-654: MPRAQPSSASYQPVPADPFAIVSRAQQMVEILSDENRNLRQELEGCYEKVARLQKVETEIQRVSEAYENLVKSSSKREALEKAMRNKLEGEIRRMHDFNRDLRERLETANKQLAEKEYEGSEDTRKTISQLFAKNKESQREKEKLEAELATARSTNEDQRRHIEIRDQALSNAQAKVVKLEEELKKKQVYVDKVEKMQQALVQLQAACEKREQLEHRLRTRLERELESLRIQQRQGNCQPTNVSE
UniProt Q4VCS5, whole entry: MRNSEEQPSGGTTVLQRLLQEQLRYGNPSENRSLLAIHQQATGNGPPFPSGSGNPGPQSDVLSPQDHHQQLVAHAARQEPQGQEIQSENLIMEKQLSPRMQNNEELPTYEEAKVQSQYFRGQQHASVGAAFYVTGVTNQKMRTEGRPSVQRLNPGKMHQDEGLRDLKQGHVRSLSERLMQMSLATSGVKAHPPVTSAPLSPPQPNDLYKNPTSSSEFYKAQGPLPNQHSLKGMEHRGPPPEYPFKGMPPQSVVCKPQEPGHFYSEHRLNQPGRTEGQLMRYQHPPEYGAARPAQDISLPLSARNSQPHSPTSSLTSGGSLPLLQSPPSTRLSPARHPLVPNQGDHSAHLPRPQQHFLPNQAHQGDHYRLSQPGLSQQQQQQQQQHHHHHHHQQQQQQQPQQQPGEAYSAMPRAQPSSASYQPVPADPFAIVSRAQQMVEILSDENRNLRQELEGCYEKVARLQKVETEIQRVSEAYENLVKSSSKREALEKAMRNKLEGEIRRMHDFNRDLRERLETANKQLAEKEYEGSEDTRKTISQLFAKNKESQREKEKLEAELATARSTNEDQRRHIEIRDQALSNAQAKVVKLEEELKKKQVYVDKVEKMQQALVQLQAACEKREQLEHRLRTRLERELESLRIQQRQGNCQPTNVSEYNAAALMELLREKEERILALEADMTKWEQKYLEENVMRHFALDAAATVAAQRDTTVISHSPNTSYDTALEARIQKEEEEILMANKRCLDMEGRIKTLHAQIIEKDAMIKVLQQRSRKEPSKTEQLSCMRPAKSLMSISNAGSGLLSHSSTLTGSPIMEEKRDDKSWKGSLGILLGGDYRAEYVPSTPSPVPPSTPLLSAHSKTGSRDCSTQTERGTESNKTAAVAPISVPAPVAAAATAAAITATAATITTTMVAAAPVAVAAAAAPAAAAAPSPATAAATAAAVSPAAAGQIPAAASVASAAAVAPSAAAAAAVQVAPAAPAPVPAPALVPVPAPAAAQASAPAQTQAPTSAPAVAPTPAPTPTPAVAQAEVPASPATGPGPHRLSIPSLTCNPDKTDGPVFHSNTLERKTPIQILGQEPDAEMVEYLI
UniProt Q4VCS5, 444-654: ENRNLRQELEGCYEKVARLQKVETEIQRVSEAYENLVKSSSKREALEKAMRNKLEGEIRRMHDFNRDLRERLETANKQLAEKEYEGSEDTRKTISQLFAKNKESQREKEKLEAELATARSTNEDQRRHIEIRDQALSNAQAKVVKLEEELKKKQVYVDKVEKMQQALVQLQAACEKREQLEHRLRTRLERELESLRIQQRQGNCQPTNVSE
UniProt Q7KZI7, whole entry: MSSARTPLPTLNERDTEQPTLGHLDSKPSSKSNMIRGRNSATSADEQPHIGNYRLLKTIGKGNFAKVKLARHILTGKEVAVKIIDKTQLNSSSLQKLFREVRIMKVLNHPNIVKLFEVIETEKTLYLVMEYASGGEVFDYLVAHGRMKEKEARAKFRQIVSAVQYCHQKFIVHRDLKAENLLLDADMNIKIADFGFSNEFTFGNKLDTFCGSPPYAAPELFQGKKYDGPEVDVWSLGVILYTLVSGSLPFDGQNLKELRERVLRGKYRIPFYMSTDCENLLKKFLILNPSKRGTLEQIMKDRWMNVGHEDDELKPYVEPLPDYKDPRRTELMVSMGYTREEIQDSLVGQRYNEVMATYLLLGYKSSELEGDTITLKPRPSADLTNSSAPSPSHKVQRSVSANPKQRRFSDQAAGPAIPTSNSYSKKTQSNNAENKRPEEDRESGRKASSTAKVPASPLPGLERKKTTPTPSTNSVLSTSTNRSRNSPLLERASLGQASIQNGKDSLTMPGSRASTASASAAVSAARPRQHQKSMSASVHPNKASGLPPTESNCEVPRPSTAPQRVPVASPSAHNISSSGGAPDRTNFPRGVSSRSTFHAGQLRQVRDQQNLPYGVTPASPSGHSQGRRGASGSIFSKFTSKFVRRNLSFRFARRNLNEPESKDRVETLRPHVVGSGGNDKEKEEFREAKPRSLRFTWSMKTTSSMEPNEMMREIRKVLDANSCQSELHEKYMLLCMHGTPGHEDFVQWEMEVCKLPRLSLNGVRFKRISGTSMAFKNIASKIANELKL

Experiments:
Test in all cases: co-IP
GFP-KIF13B = GFP-KIF13B (UniProt Q9NQT8)
FLAG-Ap80 [1] = molecular target: FLAG-Ap80 (UniProt Q4VCS5)
FLAG-Ap80-NB = FLAG-Ap80-NB (UniProt Q4VCS5)
FLAG-Ap80-B = FLAG-Ap80-B (UniProt Q4VCS5)
FLAG-Ap130 [2] = molecular target: FLAG-Ap130 (UniProt Q4VCS5)
GFP-Tail 11 = GFP-Tail 11 (UniProt Q9NQT8)
FLAG-Ap80 [3] = molecular target: FLAG-Ap80 (UniProt Q4VCS5); remark: listed apart in the source
FLAG-Ap130 [4] = molecular target: FLAG-Ap130 (UniProt Q4VCS5); remark: listed apart in the source

For FLAG-Ap80 (from UniProt Q4VCS5-2 1-675), the binding (GFP-KIF13B) was “binds”.

In the case of GFP-MARK2 (from UniProt Q7KZI7 1-788), the binding (FLAG-Ap80 [1]) is reported as “no binding”.

For “GFP-Tail 11 (from UniProt Q9NQT8 561-1500) (domain or fragment)”, the binding (FLAG-Ap80-NB) was “binds”.

In the case of “KIF13B-Δmotor-HA (from UniProt Q9NQT8 393-1826) (domain or fragment)”, the binding (FLAG-Ap80-NB) is reported as “binds”, the binding (FLAG-Ap80 [1]) is reported as “binds” and the binding (FLAG-Ap80-B) is reported as “no binding”.

With KIF13B-HA (from UniProt Q9NQT8 1-1826) the binding (FLAG-Ap130 [2]) was “no binding” and the binding (FLAG-Ap80 [1]) was “binds”.

With “FLAG-Ap80-NB (from UniProt Q4VCS5-2 1-245) (domain or fragment)” the binding (GFP-Tail 11) was “binds”.

B1: HA-PALS1 (protein, UniProt Q8N3R9 1-675)
chain: MTTSHMNGHVTEESDSEVKNVDLASPEEHQKHREMAVDCPGDLGTRMMPIRRSAQLERIRQQQEDMRRRREEEGKKQELDLNSSMRLKKLAQIPPKTGIDNPMFDTEEGIVLESPHYAVKILEIEDLFSSLKHIQHTLVDSQSQEDISLLLQLVQNKDFQNAFKIHNAITVHMNKASPPFPLISNAQDLAQEVQTVLKPVHHKEGQELTALLNTPHIQALLLAHDKVAEQEMQLEPITDERVYESIGQYGGETVKIVRIEKARDIPLGATVRNEMDSVIISRIVKGGAAEKSGLLHEGDEVLEINGIEIRGKDVNEVFDLLSDMHGTLTFVLIPSQQIKPPPAKETVIHVKAHFDYDPSDDPYVPCRELGLSFQKGDILHVISQEDPNWWQAYREGDEDNQPLAGLVPGKSFQQQREAMKQTIEEDKEPEKSGKLWCAKKNKKKRKKVLYNANKNDDYDNEEILTYEEMSLYHQPANRKRPIILIGPQNCGQNELRQRLMNKEKDRFASAVPHTTRSRRDQEVAGRDYHFVSRQAFEADIAAGKFIEHGEFEKNLYGTSIDSVRQVINSGKICLLSLRTQSLKTLRNSDLKPYIIFIAPPSQERLRALLAKEGKNPKPEELREIIEKTREMEQNNGHYFDTAIVNSDLDKAYQELLRLINKLDTEPQWVPSTWLR
B1 was tested, and the binding (FLAG-Ap80 [3]) was “binds”.

B2: KIF13B-Δmotor-HA (domain or fragment, UniProt Q9NQT8 393-1826)
chain: LKDRLEESEKLIQEMTVTWEEKLRKTEEIAQERQKQLESLGISLQSSGIKVGDDKCFLVNLNADPALNELLVYYLKEHTLIGSANSQDIQLCGMGILPEHCIIDITSEGQVMLTPQKNTRTFVNGSSVSSPIQLHHGDRILWGNNHFFRLNLPKKKKKAEREDEDQDPSMKNENSSEQLDVDGDSSSEVSSEVNFNYEYAQMEVTMKALGSNDPMQSILNSLEQQHEEEKRSALERQRLMYEHELEQLRRRLSPEKQNCRSMDRFSFHSPSAQQRLRQWAEEREATLNNSLMRLREQIVKANLLVREANYIAEELDKRTEYKVTLQIPASSLDANRKRGSLLSEPAIQVRRKGKGKQIWSLEKLDNRLLDMRDLYQEWKECEEDNPVIRSYFKRADPFYDEQENHSLIGVANVFLESLFYDVKLQYAVPIINQKGEVAGRLHVEVMRLSGDVGERIAGGDEVAEVSFEKETQENKLVCMVKILQATGLPQHLSHFVFCKYSFWDQQEPVIVAPEVDTSSSSVSKEPHCMVVFDHCNEFSVNITEDFIEHLSEGALAIEVYGHKINDPRKNPALWDLGIIQAKTRSLRDRWSEVTRKLEFWVQILEQNENGEYCPVEVISAKDVPTGGIFQLRQGQSRRVQVEVKSVQESGTLPLMEECILSVGIGCVKVRPLRAPRTHETFHEEEEDMDSYQDRDLERLRRKWLNALTKRQEYLDQQLQKLVSKRDKTEDDADREAQLLEMRLTLTEERNAVMVPSAGSGIPGAPAEWTPVPGMETHIPVIFLDLNADDFSSQDNLDDPEAGGWDATLTGEEEEEFFELQIVKQHDGEVKAEASWDSAVHGCPQLSRGTPVDERLFLIVRVTVQLSHPADMQLVLRKRICVNVHGRQGFAQSLLKKMSHRSSIPGCGVTFEIVSNIPEDAQGVEEREALARMAANVENPASADSEAYIEKYLRSVLAVENLLTLDRLRQEVAVKEQLTGKGKLSRRSISSPNVNRLSGSRQDLIPSYSLGSNKGRWESQQDVSQTTVSRGIAPAPALSVSPQNNHSPDPGLSNLAASYLNPVKSFVPQMPKLLKSLFPVRDEKRGKRPSPLAHQPVPRIMVQSASPDIRVTRMEEAQPEMGPDVLVQTMGAPALKICDKPAKVPSPPPVIAVTAVTPAPEAQDGPPSPLSEASSGYFSHSVSTATLSDALGPGLDAAAPPGSMPTAPEAEPEAPISHPPPPTAVPAEEPPGPQQLVSPGRERPDLEAPAPGSPFRVRRVRASELRSFSRMLAGDPGCSPGAEGNAPAPGAGGQALASDSEEADEVPEWLREGEFVTVGAHKTGVVRYVGPADFQEGTWVGVELDLPSGKNDGSIGGKQYFRCNPGYGLLVRPSRVRRATGPVRRRSTGLRLGAPEARRSATLSGSATNLASLTAALAKADRSHKNPENRKSWAS
For B2, the binding (FLAG-Ap130 [4]) was “no binding”.
